This passage reports binding results from PMC4659940.

Protein sequences, listed by entry. Tags and fused reporters are not part of them. Residues count along the entry.
UniProt P12023, residues 18-770: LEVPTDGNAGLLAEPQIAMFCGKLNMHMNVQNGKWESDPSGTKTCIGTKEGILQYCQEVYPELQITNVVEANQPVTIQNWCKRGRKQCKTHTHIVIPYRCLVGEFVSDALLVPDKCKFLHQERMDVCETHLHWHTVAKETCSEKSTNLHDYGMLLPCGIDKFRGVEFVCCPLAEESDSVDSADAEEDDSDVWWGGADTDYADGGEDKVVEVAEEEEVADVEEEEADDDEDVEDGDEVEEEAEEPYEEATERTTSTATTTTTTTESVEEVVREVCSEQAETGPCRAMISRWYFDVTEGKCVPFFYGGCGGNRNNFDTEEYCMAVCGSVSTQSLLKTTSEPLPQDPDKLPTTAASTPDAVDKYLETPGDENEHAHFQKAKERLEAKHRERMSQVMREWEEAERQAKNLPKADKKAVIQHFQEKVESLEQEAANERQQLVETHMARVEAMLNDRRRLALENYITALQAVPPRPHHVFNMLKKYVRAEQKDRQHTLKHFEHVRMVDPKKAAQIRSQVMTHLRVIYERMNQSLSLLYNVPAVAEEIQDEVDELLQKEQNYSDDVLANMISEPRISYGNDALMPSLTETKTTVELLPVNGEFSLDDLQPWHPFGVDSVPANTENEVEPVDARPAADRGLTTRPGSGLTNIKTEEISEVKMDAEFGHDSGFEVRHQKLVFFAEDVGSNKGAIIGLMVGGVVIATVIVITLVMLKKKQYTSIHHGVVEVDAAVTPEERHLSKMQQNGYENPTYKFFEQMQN

For the assay, the target named is T1, asparagine endopeptidase (AEP), mouse brain (mouse (endogenous in mouse brain)) (UniProt O89017).
T1 sequence: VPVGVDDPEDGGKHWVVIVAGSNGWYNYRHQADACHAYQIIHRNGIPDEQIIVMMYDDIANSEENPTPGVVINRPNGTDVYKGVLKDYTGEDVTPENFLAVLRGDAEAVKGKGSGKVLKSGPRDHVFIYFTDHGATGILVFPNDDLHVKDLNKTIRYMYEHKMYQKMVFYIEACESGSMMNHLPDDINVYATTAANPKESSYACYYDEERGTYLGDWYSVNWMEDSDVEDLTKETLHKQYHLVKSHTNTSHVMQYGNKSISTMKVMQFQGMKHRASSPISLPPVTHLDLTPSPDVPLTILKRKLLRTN
Nature of the assay: co-IP; WT and 5XFAD mouse brain lysates; anti-AEP antibody and protein A/G-agarose overnight at 4 °C; blot with anti-APP antibody.

These are yes or no findings as the source states them, for the method shown. Binding seen in cells or lysates may run through a third protein. Some entries that bind do so weakly or less than the wild type.

Consider “amyloid precursor protein (APP), mouse brain (from UniProt P12023 18-770)”, for which the binding result is reported as “binds”.
